The values below come from paper PMC5437272.

Chains of the proteins cited; added tags and fusions are not shown. Lines headed by an entry give the natural chain unless they say otherwise; changes in a name come on top. Residues count along the entry.
UniProt Q9DCB8: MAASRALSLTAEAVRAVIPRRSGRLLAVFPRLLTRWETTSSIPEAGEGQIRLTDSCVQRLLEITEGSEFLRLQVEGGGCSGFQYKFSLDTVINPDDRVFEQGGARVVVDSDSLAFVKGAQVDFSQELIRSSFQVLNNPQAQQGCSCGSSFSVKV
UniProt Q6P4F2, residues 53-183: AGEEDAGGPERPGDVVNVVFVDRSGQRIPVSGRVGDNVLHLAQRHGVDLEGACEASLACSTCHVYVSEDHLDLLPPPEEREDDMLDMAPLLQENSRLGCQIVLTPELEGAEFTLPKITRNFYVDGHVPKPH

This experiment deals with ISCA2-Flag (mouse ISCA2 with a C-terminal Flag epitope) (mouse) (UniProt Q9DCB8). Put plainly: affinity purification with mass spectrometry; Flag M2 resin IP from mitochondria-enriched extracts of HeLa cells expressing one C-terminally Flag-tagged mouse bait; crude eluates analysed by MudPIT; partners enriched 10 x over control IP and mitochondrial input; three biological replicates.

These are yes or no findings as the source states them, for the method shown. Binding seen in cells or lysates may run through a third protein. These calls come from enrichment with a bait or labelling near it, and not all partners need be listed.

“FDX2 (endogenous, HeLa) (from UniProt Q6P4F2 53-183)”: the binding result is “binds weakly”.
